Laboratory results: PubChem BioAssay AID652259 (Drosophila RNAi Screening Center, 2013)
The screen tested about 22,000 reagents; below is a random part of those with a known target gene and a result. Over the whole deposit, 233 (1.1%) are marked active. 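Light values are raw, unnormalised plate reads; the ratio scores behind the reporter calls were not deposited.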 Reagents against one gene are numbered here. Names joined by + are all predicted targets of the reagent. Not stated in the record: the amount of reagent, the time to read-out, the dose of the treatment.

Assay: 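Identify new Wingless signalling regulators in fly cells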 (primary screen)
Cells: Drosophila clone 8 imaginal disc epithelial cells
Knock-down reagent: long dsRNA against Drosophila genes
Treatment: pathway stimulated by co-transfected Wingless expression plasmid
Measurement: 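Dual luciferase reads per well after Wingless plasmid stimulation: reporter firefly light and Renilla control light; activity is firefly divided by Renilla, a ratio not deposited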
Scale: firefly reporter light: higher = more Wg reporter light, before normalisation; Renilla control light: higher = more transfected or surviving cells
Call rule: 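a knock-down is a candidate when at least two out of four statistical tests show it departing from its plate mean; one test alone signals a weak candidate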
Meaning of the calls: active = candidate regulator (raises or lowers reporter); inactive = not a candidate

The first 4 entries, to show the layout:
| gene knocked down | dsRNA no. | reporter change call, replicate 1 | firefly reporter light, replicate 1 | firefly reporter light, replicate 2 | Renilla control light, replicate 1 | Renilla control light, replicate 2 | Call |
| --- | --- | --- | --- | --- | --- | --- | --- |
| CG42703 | 1 | – | 17968 | – | 7738 | – | inactive |
| Tsp96F | 1 | – | 3196 | 4609 | 900 | 2344 | inactive |
| CG4781 | 1 | – | 2058 | 6682 | 658 | 1346 | inactive |
| X11L | 1 | – | 4150 | 11027 | 1547 | 4016 | inactive |

The listing, from the first entry:
| gene knocked down | dsRNA no. | reporter change call, replicate 1 | firefly reporter light, replicate 1 | firefly reporter light, replicate 2 | Renilla control light, replicate 1 | Renilla control light, replicate 2 | Call |
| --- | --- | --- | --- | --- | --- | --- | --- |
| CG42703 | 1 | – | 17968 | – | 7738 | – | inactive |
| Tsp96F | 1 | – | 3196 | 4609 | 900 | 2344 | inactive |
| CG4781 | 1 | – | 2058 | 6682 | 658 | 1346 | inactive |
| X11L | 1 | – | 4150 | 11027 | 1547 | 4016 | inactive |
| X11L | 2 | – | 20807 | – | 9803 | – | inactive |
| Mst84B | 1 | – | 16468 | – | 4045 | – | inactive |
| Efhc1.2 | 1 | – | 9140 | – | 2893 | – | inactive |
| Npc2e | 1 | – | 20999 | – | 7315 | – | inactive |
| Npc2e | 2 | – | 4.58e5 | 4.72e5 | 1.10e5 | 1.11e5 | inactive |
| SkpD | 1 | – | 8.67e5 | 8.31e5 | 2.15e5 | 2.27e5 | inactive |
| Ctr1C | 1 | – | 9910 | – | 3896 | – | inactive |
| Tim13 | 1 | – | 8298 | – | 3232 | – | inactive |
| wntD | 1 | – | 11989 | – | 2473 | – | inactive |
| Teh1 | 1 | – | 20156 | – | 5264 | – | inactive |
| CG1812 | 1 | – | 3738 | 10553 | 1592 | 4016 | inactive |
| CG5377 | 1 | – | 35211 | – | 7660 | – | inactive |
| msn | 1 | – | 2908 | – | 1091 | – | inactive |
| msn | 2 | – | 6992 | – | 3043 | – | inactive |
| CG6847 | 1 | – | 3520 | – | 1405 | – | inactive |
| CG6847 | 2 | – | 14490 | – | 7286 | – | inactive |
| CG13557 | 1 | – | 3292 | 7259 | 762 | 3046 | inactive |
| DCP2 | 1 | – | 3340 | – | 1410 | – | inactive |
| DCP2 | 2 | – | 4624 | – | 1927 | – | inactive |
| CG42834 | 1 | – | 2921 | – | 1520 | – | inactive |
| mthl4 | 1 | – | 9574 | – | 3906 | – | inactive |
| CG12177 | 1 | – | 39299 | – | 18439 | – | inactive |
| CG12177 | 2 | – | 7.34e5 | 7.38e5 | 4.63e5 | 3.63e5 | inactive |
| zld | 1 | – | 24311 | – | 10490 | – | inactive |
| zld | 2 | – | 5.10e5 | 5.04e5 | 1.21e5 | 1.03e5 | inactive |
| dtr | 1 | – | 15792 | – | 8508 | – | inactive |
| CG3163 | 1 | – | 9080 | – | 2614 | – | inactive |
| ppk5 | 1 | – | 5041 | – | 1782 | – | inactive |
| Cyp6a8 | 1 | – | 15388 | – | 4819 | – | inactive |
| CG11041 | 1 | – | 5440 | – | 2213 | – | inactive |
| CG4390 | 1 | – | 1824 | 5120 | 885 | 2170 | inactive |
| mew | 1 | – | 3819 | – | 450 | – | inactive |
| mew | 2 | – | 22507 | – | 9120 | – | inactive |
| CG15561 | 1 | – | 11202 | – | 4534 | – | inactive |
| CG32987 | 1 | – | 6.80e5 | 7.93e5 | 2.62e5 | 3.01e5 | inactive |
| Arr2 | 1 | – | 1373 | 5450 | 1074 | 3249 | inactive |
| CG12729 | 1 | – | 17812 | – | 8355 | – | inactive |
| Coa8 | 1 | – | 18929 | – | 13984 | – | inactive |
| CG17211 | 1 | – | 2937 | 8924 | 1170 | 3010 | inactive |
| Asx | 1 | – | 6923 | – | 1108 | – | inactive |
| Mvb12 | 1 | – | 21545 | – | 8880 | – | inactive |
| CG43153 | 1 | – | 18825 | – | 10041 | – | inactive |
| CG15144 | 1 | – | 2534 | 4549 | 820 | 2129 | inactive |
| CG2991 | 1 | – | 9292 | – | 4284 | – | inactive |
| CG3434 | 1 | – | 3651 | – | 1921 | – | inactive |
| CG3123 | 1 | – | 2160 | 6176 | 952 | 2150 | inactive |
| Ank | 1 | – | 1972 | 3816 | 796 | 1577 | inactive |
| Or47b | 1 | – | 5410 | – | 2291 | – | inactive |
| Fbp1 | 1 | – | 4509 | – | 1813 | – | inactive |
| Elp5 | 1 | – | 4743 | – | 2125 | – | inactive |
| mIF3 | 1 | – | 4784 | – | 2395 | – | inactive |
| Zmynd10 | 1 | – | 5456 | – | 2288 | – | inactive |
| sunn | 1 | – | 2.84e5 | 2.99e5 | 1.54e5 | 1.29e5 | inactive |
| CG34462 | 1 | – | 1192 | 8307 | 1049 | 3685 | inactive |
| eEF5 | 1 | – | 3497 | 7970 | 578 | 2740 | inactive |
| Nepl13 | 1 | – | 16329 | – | 14700 | – | inactive |
| bgcn | 1 | – | 1911 | 7075 | 696 | 2582 | inactive |
| bgcn | 2 | – | 2368 | 7329 | 645 | 2077 | inactive |
| Sf3b3 | 1 | – | 18499 | – | 4721 | – | inactive |
| LUBEL | 1 | – | 2118 | 5425 | 641 | 1752 | inactive |
| cos | 1 | – | 11638 | – | 3856 | – | inactive |
| CG43774 + CG43773 | 1 | – | 2581 | 4116 | 1126 | 2007 | inactive |
| CG43774 + CG43773 | 2 | – | 3117 | 8413 | 1367 | 2896 | inactive |
| CG17855 | 1 | – | 2401 | 10530 | 896 | 3276 | inactive |
| CG13458 | 1 | – | 5289 | – | 1946 | – | inactive |
| achi | 1 | – | 5881 | – | 2055 | – | inactive |
| RhoGAP19D | 1 | – | 2819 | 7830 | 1218 | 2448 | inactive |
| RhoGAP19D | 2 | – | 29627 | – | 11671 | – | inactive |
| CDK2AP1 | 1 | – | 4278 | 9200 | 1360 | 3453 | inactive |
| CG42557 + CG42558 | 1 | – | 3173 | – | 2226 | – | inactive |
| CG42557 + CG42558 | 2 | – | 3658 | 3168 | 883 | 1184 | inactive |
| CG2336 | 1 | – | 9568 | – | 2742 | – | inactive |
| CG5592 | 1 | – | 2019 | 5392 | 1591 | 3162 | inactive |
| CG30457 | 1 | – | 9944 | 8.61e5 | 3880 | 4.56e5 | inactive |
| CG5080 | 1 | – | 12615 | – | 5146 | – | inactive |
| CG3655 | 1 | – | 4509 | – | 1555 | – | inactive |
| CG3655 | 2 | – | 18420 | – | 13628 | – | inactive |
| CG3655 | 3 | – | 14025 | – | 10339 | – | inactive |
| CG3655 | 4 | – | 4.91e5 | 5.55e5 | 1.43e5 | 1.18e5 | inactive |
| Tab2 | 1 | – | 4537 | – | 1501 | – | inactive |
| d-cup | 1 | – | 16984 | – | 5179 | – | inactive |
| Unc-115b + p24-2 + Unc-115a | 1 | – | 13440 | – | 4107 | – | inactive |
| Zdhhc8 | 1 | Wg reporter activity raised | 29384 | – | 3869 | – | active |
| Zdhhc8 | 2 | – | 22163 | – | 9842 | – | inactive |
| TwdlQ | 1 | – | 6785 | – | 1328 | – | inactive |
| MtnF | 1 | – | 3328 | – | 1515 | – | inactive |
| rhi | 1 | – | 6128 | – | 2218 | – | inactive |
| mtm | 1 | – | 11316 | – | 4835 | – | inactive |
| Sil1 | 1 | – | 2704 | 4864 | 1427 | 1690 | inactive |
